The target in this assay is T1, Peroxiredoxin 1 (human (endogenous in DOK cells and in human OLK tissue)) (UniProt Q06830).
T1 sequence: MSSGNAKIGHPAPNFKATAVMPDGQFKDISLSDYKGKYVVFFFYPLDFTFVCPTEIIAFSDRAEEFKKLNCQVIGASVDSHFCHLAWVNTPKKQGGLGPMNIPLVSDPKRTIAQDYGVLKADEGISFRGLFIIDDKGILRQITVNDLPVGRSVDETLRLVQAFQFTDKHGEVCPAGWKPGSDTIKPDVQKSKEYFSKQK
The assay is described as follows: affinity purification with mass spectrometry; total protein of human DOK cells (nicotine treatment group, 1 uM nicotine for 7 days, and control group) incubated with anti-Prx1 antibody (Co-IP); peptides analysed by LC-MS/MS; proteins with unique peptide counts >=1 accepted.

Amino acid sequences for entries named in this document (tags omitted).
UniProt P23528: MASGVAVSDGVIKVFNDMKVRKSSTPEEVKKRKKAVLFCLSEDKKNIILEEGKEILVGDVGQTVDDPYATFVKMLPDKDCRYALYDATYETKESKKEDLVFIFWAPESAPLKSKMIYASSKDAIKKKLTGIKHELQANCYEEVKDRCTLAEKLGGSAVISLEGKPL
UniProt P30153: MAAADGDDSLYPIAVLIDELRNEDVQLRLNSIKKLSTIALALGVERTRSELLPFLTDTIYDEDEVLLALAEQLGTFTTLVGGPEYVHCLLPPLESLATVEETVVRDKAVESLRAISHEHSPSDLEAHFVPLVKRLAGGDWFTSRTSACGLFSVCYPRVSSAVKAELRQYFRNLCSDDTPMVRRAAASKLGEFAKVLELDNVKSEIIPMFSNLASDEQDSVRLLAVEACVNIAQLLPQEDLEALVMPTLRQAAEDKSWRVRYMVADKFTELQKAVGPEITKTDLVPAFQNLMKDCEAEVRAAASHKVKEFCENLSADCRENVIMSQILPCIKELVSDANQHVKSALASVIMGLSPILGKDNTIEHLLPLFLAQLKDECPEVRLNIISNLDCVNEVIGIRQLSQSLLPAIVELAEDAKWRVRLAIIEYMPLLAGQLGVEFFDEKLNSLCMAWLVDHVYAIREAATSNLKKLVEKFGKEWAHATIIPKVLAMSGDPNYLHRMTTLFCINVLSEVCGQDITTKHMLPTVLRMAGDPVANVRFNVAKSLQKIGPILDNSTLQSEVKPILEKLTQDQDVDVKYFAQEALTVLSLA

No constants are given. Whether binding was seen depends on the method and setting. Binding seen in cells or lysates may run through a third protein. A yes stands for co-enrichment or nearness to the bait. Other partners may have been found.

Consider Cofilin-1 (from UniProt P23528 1-166), for which the binding entry was “binds”.

For the substance “Serine/threonine-protein phosphatase 2A 65 kDa regulatory subunit A alpha isoform (from UniProt P30153 1-589)”, the binding result is “binds”.

For the origin of these results see PMC8186375.
